This is one part of the list. Further columns of the screen follow, without active or inactive calls. The list favours compounds with an active or inconclusive main result. The note in brackets gives the kind of curve behind each potency; many fits are weak.
Assay: IkB Signaling
Details: ABC-DLBCL IkBa-CBG/CBR dual luciferase ratio (green luciferase fused to IkBa over red control in OCI-Ly3 lymphoma cells), 4 h; measured here: control luc red channel unless noted
In short: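 Luminescence ratio of IκBα-fused green versus native red beetle luciferase in OCI-Ly3 cells, 4 h post-doxycycline with compound; red signal alone, scaled from basal (0%) to zero light (-100%), flagged nonspecific or cytotoxic effects.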
With `Cc1sc2nc(C(C)C)nc(SCC(=O)N3CCN(C(=O)c4ccco4)CC3)c2c1C` the AC50 was 31.6 µM [falling, single point].
With `Cn1c(SCC(=O)c2ccccc2)nnc1-c1cnccn1` the AC50 was 20 µM [falling, partial curve].
For `CCc1nn2c(=O)cc(COC(=O)c3cccc(NC(=O)c4cccs4)c3)nc2s1`, the AC50 was 0.794 µM [falling, full curve].
For `COCCNC(=O)Nc1cc(C(=O)NCc2ccc(C(C)C)cc2)ccc1N1CCCC1`, the AC50 was 39.8 µM [falling, single point].
With `COc1cc(C2NC(=O)c3c(sc4c3CCN(C)C4)N2)cc(Br)c1OC(=O)c1ccc(C)cc1` (configuration not stated) the AC50 was 25.1 µM [falling, single point].
For `CCOc1ccc(C2C(C(=O)OC)=C(C)NC3=C2C(=O)c2ccccc23)cc1OC` (configuration not stated), the AC50 was 10 µM [falling, partial curve].
For `O=C(NCC(c1ccc2c(c1)OCO2)N1CCN(c2ccc(F)cc2)CC1)c1cccc([N+](=O)[O-])c1` (configuration not stated), the AC50 was 31.6 µM [falling, single point].
For `Cc1ccc2onc(CNC(=O)Nc3ccccc3C#N)c2c1`, the AC50 was 12.6 µM [falling, single point].
For `O=C(c1noc2c1CCc1ccccc1-2)N1CCc2ccccc2C1`, the AC50 was 20 µM [falling, single point].
For `COc1ccc(Nc2ncnc3c2c(-c2ccccc2)cn3-c2ccc(C)c(Cl)c2)cc1OC`, the AC50 was 12.6 µM [falling, single point].
With `O=C(CSc1nnc(Cc2cccs2)n1Cc1ccco1)Nc1ccc(Cl)cc1Cl` the AC50 was 15.8 µM [falling, partial curve].
With `Cc1nn(C)c2c1c(C(F)(F)F)cc(=O)n2C(C)C(=O)NCCc1ccc(Cl)cc1` (configuration not stated) the AC50 was 25.1 µM [falling, partial curve].
For `COc1ccc(NC(=O)c2ccccc2NC(=O)c2ccco2)c(OC)c1`, the AC50 was 7.94 µM [falling, partial curve].
In the case of `COCCOC(=O)c1c(C)oc2c1cc(NS(=O)(=O)c1ccc(Cl)c(C)c1)c1ccccc12`, the AC50 is reported as 12.6 µM [falling, partial curve].
With `N#Cc1ccc(C(=O)Nc2ccccc2-c2nc3ccccc3s2)c(F)c1` the AC50 was 3.98 µM [rising, full curve].
With `COc1ccc(OCc2ccc(-c3nc(C#N)c(NCc4ccccc4)o3)o2)cc1` the AC50 was 31.6 µM [falling, single point].
For `COc1ccc(-c2nc(SCC(=O)Nc3ccc4c(c3)OCO4)c(-c3ccccc3)[nH]2)cc1`, the AC50 was 0.158 µM [falling, full curve].
With `O=C(CN1CCN(c2ncccn2)CC1)N1CCN(C(c2ccccc2)c2ccccc2)CC1` the AC50 was 25.1 µM [falling, single point].
In the case of `COc1ccccc1NC(=O)C1=C(C)Nc2nc(-c3ccco3)nn2C1c1ccccc1` (configuration not stated), the AC50 is reported as 15.8 µM [falling, partial curve].
With `Cc1ccccc1NC(=O)c1c(NC(=O)c2ccncc2)sc2c1CCC(C(C)(C)C)C2` (configuration not stated) the AC50 was 12.6 µM [falling, partial curve].
For `CNS(=O)(=O)c1cc(-c2nn3c(C)nnc3c3ccccc23)ccc1C`, the AC50 was 2.51 µM [falling, full curve].
For `CCOC(=O)c1c(NC(=O)c2cc(-c3ccc(Cl)cc3)on2)sc2c1CCCC2`, the AC50 was 10 µM [falling, partial curve].
For `CCOc1ccc(-c2cc3nc(C4CCN(C(=O)OC(C)(C)C)CC4)c(C(=O)Nc4ccc(C)c(F)c4)cn3n2)cc1`, the AC50 was 31.6 µM [falling, single point].
With `Cc1ccc(C)n1-n1cnc2sc(-c3ccccc3)cc2c1=O` the AC50 was 25.1 µM [falling, partial curve].
For `CCn1cc(C(=O)N2CCN(c3cc(Cl)ccc3C)CC2)c(=O)c2cc(S(=O)(=O)N3CCOCC3)ccc21`, the AC50 was 20 µM [falling, single point].
With `CC(=O)c1ccc(NS(=O)(=O)c2cnc(N)nc2)cc1` the AC50 was 25.1 µM [rising, single point].
With `Cc1cccc(NC(=O)CSC2=Nc3ccccc3C3=NC(CCC(=O)NCc4ccc(F)cc4)C(=O)N23)c1` (configuration not stated) the AC50 was 20 µM [falling, single point].
In the case of `CCOc1ccc(CN2C(=O)c3ccccc3Sc3ccc(C(=O)NCCc4ccccc4)cc32)cc1`, the AC50 is reported as 10 µM [rising, partial curve].
For `CC1CCN(S(=O)(=O)c2ccc(C(=O)Nc3nc4ccc(F)cc4s3)cc2)CC1`, the AC50 was 0.631 µM [falling, full curve].
In the case of `O=C(CCSc1nc(-c2ccco2)cc(C(F)(F)F)n1)N1CCCc2ccccc21`, the AC50 is reported as 12.6 µM [falling, partial curve].
In the case of `CC(C(=O)Nc1ccccc1C(F)(F)F)n1nnc2sc3c(c2c1=O)CCCC3` (configuration not stated), the AC50 is reported as 25.1 µM [falling, partial curve, poor fit].
With `O=C1CCCC2=C1C1(O)C(=O)c3ccccc3C1(O)O2` (configuration not stated) the AC50 was 12.6 µM [falling, partial curve].
With `CCc1ccc(CNC(=O)CSc2c3c(nc4ccc(Cl)cc24)CCCC3)cc1` the AC50 was 2.51 µM [falling, full curve, poor fit].
In the case of `Cc1ccc2c(c1)C(c1ccccc1)N(C(=O)c1ccc(S(=O)(=O)N3CCCCC3)cc1)CC(=O)N2` (configuration not stated), the AC50 is reported as 39.8 µM [falling, single point].
With `Cc1ccccc1NC(=O)C(=O)NCC1(c2ccccc2)CCCC1` the AC50 was 15.8 µM [falling, single point].
For `O=C(Nc1nc(-c2ccc3c(c2)OCO3)cs1)C1COc2ccccc2O1` (configuration not stated), the AC50 was 10 µM [falling, partial curve].
For `CCOc1ccc(Nc2nc(C)c(NC(=O)c3ccc(C)cc3)c(Nc3ccc(OCC)cc3)n2)cc1`, the AC50 was 6.31 µM [falling, partial curve].
With `O=C(CSc1nnc2scc(-c3ccc(Cl)cc3)n12)Nc1cccc(C(F)(F)F)c1` the AC50 was 20 µM [falling, partial curve].
With `CCOc1ccc(N2CCCn3c2nc2c3c(=O)n(CCc3ccccc3)c(=O)n2C)cc1` the AC50 was 12.6 µM [falling, partial curve].
In the case of `CCn1c(=O)c2cc(C(=O)N3CCN(c4cccc(OC)c4)CC3)sc2c2ccccc21`, the AC50 is reported as 7.94 µM [falling, full curve].
With `COc1ccc(Cl)cc1Nc1nc2ccc(C(=O)c3ccccc3)cc2n2cnnc12` the AC50 was 0.0794 µM [falling, full curve, poor fit].
For `CCc1ccc(C(c2ccccc2)c2c[nH]c3ccc(C)cc23)s1` (configuration not stated), the AC50 was 39.8 µM [falling, partial curve].
In the case of `O=C(Nc1ccc(Br)cc1)C1CCCN1S(=O)(=O)c1cccs1` (configuration not stated), the AC50 is reported as 6.31 µM [falling, partial curve].
With `CC(CCc1ccccc1)NC(=O)Cn1c(=O)nc(-c2ccccc2F)c2cc(Cl)ccc21` (configuration not stated) the AC50 was 25.1 µM [falling, partial curve].
With `CCOC(=O)Cn1nnnc1C(CC)N(Cc1cccs1)Cc1cc2cc(C)ccc2[nH]c1=O` (configuration not stated) the AC50 was 12.6 µM [falling, partial curve].
In the case of `CC(C(=O)N(C1CC1)C1(C(=O)Nc2ccccc2)CCCC1)N1C(=O)c2ccccc2C1=O` (configuration not stated), the AC50 is reported as 12.6 µM [falling, partial curve].
In the case of `COc1cccc(-n2ccnc2SCC(=O)Nc2ccc(Cl)c(Cl)c2)c1`, the AC50 is reported as 12.6 µM [rising, partial curve, poor fit].
For `CSc1ccc(CCNC(=O)c2ccc3c(c2)nc2n3CCCCC2)cc1`, the AC50 was 20 µM [falling, partial curve].
With `O=C(CSc1nccn1-c1ccc(Cl)cc1)Nc1cccc2ccccc12` the AC50 was 15.8 µM [falling, partial curve].
In the case of `Cc1ccc(CSc2ncc(Cl)c(C(=O)Nc3nc4ccc(C)cc4s3)n2)cc1`, the AC50 is reported as 1.58 µM [falling, full curve].
For `Oc1c(C(c2ccccc2)N2CCN(c3cccc(Cl)c3)CC2)sc2nc(-c3ccco3)nn12` (configuration not stated), the AC50 was 3.98 µM [rising, partial curve, poor fit].
In the case of `O=c1c(=O)n(-c2ccccc2)ccn1Cc1cccc(C(F)(F)F)c1`, the AC50 is reported as 1 µM [rising, full curve, poor fit].
With `COc1ccccc1N1CCN(C(=O)CCc2ccc(S(=O)(=O)NCC(C)C)cc2)CC1` the AC50 was 12.6 µM [falling, partial curve].
For `O=C(NCc1ccc(F)cc1)c1ccc(CS(=O)Cc2ccc(Cl)cc2)o1` (configuration not stated), the AC50 was 15.8 µM [falling, single point].
In the case of `COc1ccccc1CNS(=O)(=O)c1cc(Br)cc2c1N(C(C)=O)C(C)C2` (configuration not stated), the AC50 is reported as 25.1 µM [falling, partial curve].
In the case of `COc1cc(Cl)c(NC(=O)c2cc(CN3CCCC3)on2)c(OC)c1`, the AC50 is reported as 3.16 µM [rising, single point].
With `CC(=O)N1CCc2c(sc(NC(=O)CSc3ccc(F)cc3)c2-c2nc3ccccc3s2)C1` the AC50 was 12.6 µM [falling, single point].
In the case of `Cc1ccc(Cn2c(CO)cnc2SCC(=O)Nc2cccc(F)c2)cc1`, the AC50 is reported as 1 µM [falling, full curve, poor fit].
With `Cc1cc(C)cc(CC2CC(=O)N(c3ccc4c(c3)OCCO4)C2=O)c1` (configuration not stated) the AC50 was 25.1 µM [falling, partial curve].
For `CCn1c(C)c(C)c2cc(C(=O)NCCc3cc(OC)ccc3OC)ccc21`, the AC50 was 39.8 µM [falling, single point].
In the case of `CCCn1c(CN2CCCCC2C)nc2c1c(=O)n(C)c(=O)n2C` (configuration not stated), the AC50 is reported as 20 µM [falling, single point].
In the case of `Cc1oc2ncn(CC(C)C)c(=O)c2c1C(=O)NCCCN(C)Cc1ccccc1`, the AC50 is reported as 0.0398 µM [rising, partial curve, poor fit].

From PubChem BioAssay AID445 (National Center for Advancing Translational Sciences (NCATS), 2006)
